# Data as given in the supplement of paper PMC8728848.
# The list shows a part of the results.
# B1: SUN4P (Saccharomyces cerevisiae), P53616 (protein)
# chain: MGSSHHHHHHSSGLVPRGSHNGSIYGDLADFSGPYEKFEDGTIPCGQFPSGQGVIPISWLDEGGWSGVENTDTSTGGSCKEGSYCSYACQPGMSKTQWPSDQPSDGRSIGGLLCKDGYLYRSNTDTDYLCEWGVDAAYVVSELSNDVAICLTDYPGTENMVIPTYVQAGDSLPLTVVDQDTYYTWQGLKTSAQYYVNNAGISVEDACVWGSSSSGVGNWAPLNFGAGSSDGVAYLSLIPNPNNGNALNFNVKIVAADDSSTVNGECIYENGSFSGGSDGCTVSVTAGKAKFVLYN
# Legend:
# Experiment in all cases: glycan array binding signal (z-score within array); higher = stronger binding
# Details in all cases: glycan notation: IUPAC condensed, linker removed; mutation: R276L
# [1] = biological target: Fuc(a1-2)[GalNAc(a1-3)]Gal(b1-3)GlcNAc(b1-3)GalNAc
# Summary of the method: (§1)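 Negative Z-scores can be read as non-binding. The Z-score is calculated within each array and then averaged across arrays of one protein sequence at different concentrations or buffers and across linkers. Arrays, 3228 in all, were curated from the Consortium for Functional Glycomics database and kept only where the protein sequence was available.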
# [2] = biological target: Fuc(a1-2)[GalNAc(a1-3)]Gal(b1-3)GlcNAc(b1-6)GalNAc
# Summary of the method: as §1
# [3] = biological target: Fuc(a1-2)[GalNAc(a1-3)]Gal(b1-4)Glc
# Summary of the method: as §1
# [4] = biological target: Fuc(a1-2)[GalNAc(a1-3)]Gal(b1-4)GlcNAc
# Summary of the method: as §1
# [5] = biological target: Fuc(a1-2)[GalNAc(a1-3)]Gal(b1-4)GlcNAc(b1-2)Man
# Summary of the method: as §1
# [6] = biological target: Fuc(a1-2)[GalNAc(a1-3)]Gal(b1-4)GlcNAc(b1-2)Man(a1-3)[Fuc(a1-2)[GalNAc(a1-3)]Gal(b1-4)GlcNAc(b1-2)Man(a1-6)]Man(b1-4)GlcNAc(b1-4)GlcNAc
# Summary of the method: as §1
# [7] = biological target: Fuc(a1-2)[GalNAc(a1-3)]Gal(b1-4)GlcNAc(b1-2)Man(a1-3)[Fuc(a1-2)[GalNAc(a1-3)]Gal(b1-4)GlcNAc(b1-2)Man(a1-6)]Man(b1-4)GlcNAc(b1-4)[Fuc(a1-6)]GlcNAc
# Summary of the method: as §1
# [8] = biological target: Fuc(a1-2)[GalNAc(a1-3)]Gal(b1-4)GlcNAc(b1-3)Gal(b1-4)GlcNAc
# Summary of the method: as §1
# [9] = biological target: Fuc(a1-2)[GalNAc(a1-3)]Gal(b1-4)GlcNAc(b1-3)Gal(b1-4)GlcNAc(b1-3)Gal(b1-4)GlcNAc
# Summary of the method: as §1
# [10] = biological target: Fuc(a1-2)[GalNAc(a1-3)]Gal(b1-4)GlcNAc(b1-3)GalNAc
# Summary of the method: as §1
# [11] = biological target: Fuc(a1-2)[GalNAc(a1-3)]Gal(b1-4)GlcNAc(b1-3)[Fuc(a1-2)[GalNAc(a1-3)]Gal(b1-4)GlcNAc(b1-6)]GalNAc
# Summary of the method: as §1
# [12] = biological target: Fuc(a1-2)[GalNAc(a1-3)]Gal(b1-4)GlcNAc(b1-6)GalNAc
# Summary of the method: as §1
# [13] = biological target: Fuc(a1-2)[GalNAc(a1-3)]Gal(b1-4)[Fuc(a1-3)]GlcNAc
# Summary of the method: as §1
# [14] = biological target: Fuc(a1-2)[GalNAc(a1-3)]Gal(b1-4)[Fuc(a1-3)]GlcNAc(b1-3)GalNAc
# Summary of the method: as §1
# [15] = biological target: Fuc(a1-2)[GalNAc(a1-4)]Gal(b1-4)GlcNAc
# Summary of the method: as §1
# [16] = biological target: Fuc(a1-2)[GalNAc(b1-3)]Gal
# Summary of the method: as §1
# Fuc(a1-3)GlcNAc = biological target: Fuc(a1-3)GlcNAc
# Summary of the method: as §1
# [17] = biological target: Fuc(a1-3)[Gal(b1-4)]Glc6S
# Summary of the method: as §1
# [18] = biological target: Fuc(a1-3)[Gal(b1-4)]GlcNAc
# Summary of the method: as §1
# [19] = biological target: Fuc(a1-3)[Gal(b1-4)]GlcNAc(b1-2)Man
# Summary of the method: as §1
# [20] = biological target: Fuc(a1-3)[Gal(b1-4)]GlcNAc(b1-2)Man(a1-3)[Fuc(a1-3)[Gal(b1-4)]GlcNAc(b1-2)Man(a1-6)]Man(b1-4)GlcNAc(b1-4)GlcNAc
# Summary of the method: as §1
# [21] = biological target: Fuc(a1-3)[Gal(b1-4)]GlcNAc(b1-2)Man(a1-3)[Fuc(a1-3)[Gal(b1-4)]GlcNAc(b1-2)Man(a1-6)]Man(b1-4)GlcNAc(b1-4)[Fuc(a1-6)]GlcNAc
# Summary of the method: as §1
# [22] = biological target: Fuc(a1-3)[Gal(b1-4)]GlcNAc(b1-3)Gal(b1-3)[Fuc(a1-4)]GlcNAc
# Summary of the method: as §1
# [23] = biological target: Fuc(a1-3)[Gal(b1-4)]GlcNAc(b1-3)Gal(b1-4)[Fuc(a1-3)]GlcNAc
# Summary of the method: as §1
# [24] = biological target: Fuc(a1-3)[Gal(b1-4)]GlcNAc(b1-3)Gal(b1-4)[Fuc(a1-3)]GlcNAc(b1-3)Gal(b1-4)[Fuc(a1-3)]GlcNAc
# Summary of the method: as §1
# [25] = biological target: Fuc(a1-3)[Gal(b1-4)]GlcNAc(b1-3)GalNAc
# Summary of the method: as §1
# [26] = biological target: Fuc(a1-3)[Gal(b1-4)]GlcNAc(b1-6)GalNAc
# Summary of the method: as §1
# [27] = biological target: Fuc(a1-3)[Gal(b1-4)]GlcNAc(b1-6)[Gal(b1-3)GlcNAc(b1-3)]Gal(b1-4)Glc
# Summary of the method: as §1
# [28] = biological target: Fuc(a1-3)[Gal(b1-4)]GlcNAc6S
# Summary of the method: as §1
# [29] = biological target: Fuc(a1-3)[Gal3S(b1-4)]Glc
# Summary of the method: as §1
# [30] = biological target: Fuc(a1-3)[Gal3S(b1-4)]GlcNAc
# Summary of the method: as §1
# [31] = biological target: Fuc(a1-3)[Gal3S(b1-4)]GlcNAc6S
# Summary of the method: as §1
# [32] = biological target: Fuc(a1-3)[GalNAc(b1-4)]GlcNAc
# Summary of the method: as §1
# [33] = biological target: Fuc(a1-3)[GalNAc(b1-4)]GlcNAc6S
# Summary of the method: as §1
# Fuc(a1-4)GlcNAc = biological target: Fuc(a1-4)GlcNAc
# Summary of the method: as §1
# Fuc(b1-3)GlcNAc = biological target: Fuc(b1-3)GlcNAc
# Summary of the method: as §1
# Gal(a1-2)Gal = biological target: Gal(a1-2)Gal
# Summary of the method: as §1
binder,measurement,setting,value
B1,glycan array binding signal (z-score),[1],1.16
same,glycan array binding signal (z-score),[2],0.562
same,glycan array binding signal (z-score),[3],-0.571
same,glycan array binding signal (z-score),[4],-0.142
same,glycan array binding signal (z-score),[5],-0.443
same,glycan array binding signal (z-score),[6],0.742
same,glycan array binding signal (z-score),[7],-0.12
same,glycan array binding signal (z-score),[8],-1.07
same,glycan array binding signal (z-score),[9],-0.33
same,glycan array binding signal (z-score),[10],-0.646
same,glycan array binding signal (z-score),[11],0.905
same,glycan array binding signal (z-score),[12],-0.976
same,glycan array binding signal (z-score),[13],0.45
same,glycan array binding signal (z-score),[14],0.696
same,glycan array binding signal (z-score),[15],0.486
same,glycan array binding signal (z-score),[16],1.77
same,glycan array binding signal (z-score),Fuc(a1-3)GlcNAc,-0.655
same,glycan array binding signal (z-score),[17],-0.498
same,glycan array binding signal (z-score),[18],-0.538
same,glycan array binding signal (z-score),[19],0.998
same,glycan array binding signal (z-score),[20],-0.651
same,glycan array binding signal (z-score),[21],-1.23
same,glycan array binding signal (z-score),[22],-0.188
same,glycan array binding signal (z-score),[23],0.253
same,glycan array binding signal (z-score),[24],0.692
same,glycan array binding signal (z-score),[25],0.07
same,glycan array binding signal (z-score),[26],0.619
same,glycan array binding signal (z-score),[27],-0.206
same,glycan array binding signal (z-score),[28],0.572
same,glycan array binding signal (z-score),[29],-0.346
same,glycan array binding signal (z-score),[30],-0.386
same,glycan array binding signal (z-score),[31],-0.358
same,glycan array binding signal (z-score),[32],-0.53
same,glycan array binding signal (z-score),[33],-0.524
same,glycan array binding signal (z-score),Fuc(a1-4)GlcNAc,-0.981
same,glycan array binding signal (z-score),Fuc(b1-3)GlcNAc,0.466
same,glycan array binding signal (z-score),Gal(a1-2)Gal,-1.48

# Already shown: entries from further up.
binder,measurement,setting,value
B1,glycan array binding signal (z-score),[31],-0.358
same,glycan array binding signal (z-score),[32],-0.53
